This is one part of the list.
Experiments:
Test in all cases: log2 fold change, soluble protein after heating vs DMSO (PISA); higher = thermal stabilisation; K562 cells, 10 uM, 30 min; active = over 0.2 and 3.5 SD of the protein, either way, in both replicates (recomputed)
[1] = compound: CC[C@@H]1C(=O)N(C)c2cnc(Nc3ccc(C(=O)NC4CCN(C)CC4)cc3OC)nc2N1C1CCCC1
How it was run: (§1)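 K562 cells at 2×10^6 cells/mL were treated with 10 μM compound for 30 min. Aliquots were heated for 3 min across 48°C-58°C, pooled, and extracted in PBS with 0.5% NP-40 at 4°C; soluble protein was the supernatant after 21,000xg for 90 min. Soluble protein was quantified by TMTpro 16plex LC-MS/MS with channel sums equalised, and reported as log2 fold change in thermal stability against DMSO controls, with values from duplicates.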

Sequences of proteins named here, by UniProt entry; tags and fusion partners are left off. A change or cut given only in a name is not applied to a line headed by its entry.
UniProt Q9Y2G5: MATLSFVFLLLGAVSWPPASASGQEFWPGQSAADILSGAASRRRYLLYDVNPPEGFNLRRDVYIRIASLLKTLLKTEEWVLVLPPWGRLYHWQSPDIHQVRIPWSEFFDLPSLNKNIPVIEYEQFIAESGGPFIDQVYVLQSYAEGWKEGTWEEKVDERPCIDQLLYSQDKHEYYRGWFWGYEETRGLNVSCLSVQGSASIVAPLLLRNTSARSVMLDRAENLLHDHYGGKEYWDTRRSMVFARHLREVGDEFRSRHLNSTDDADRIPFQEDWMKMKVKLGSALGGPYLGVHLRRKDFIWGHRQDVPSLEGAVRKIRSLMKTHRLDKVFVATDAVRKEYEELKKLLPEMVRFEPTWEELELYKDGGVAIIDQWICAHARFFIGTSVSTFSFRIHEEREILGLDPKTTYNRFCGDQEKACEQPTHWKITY
UniProt Q9H5K3: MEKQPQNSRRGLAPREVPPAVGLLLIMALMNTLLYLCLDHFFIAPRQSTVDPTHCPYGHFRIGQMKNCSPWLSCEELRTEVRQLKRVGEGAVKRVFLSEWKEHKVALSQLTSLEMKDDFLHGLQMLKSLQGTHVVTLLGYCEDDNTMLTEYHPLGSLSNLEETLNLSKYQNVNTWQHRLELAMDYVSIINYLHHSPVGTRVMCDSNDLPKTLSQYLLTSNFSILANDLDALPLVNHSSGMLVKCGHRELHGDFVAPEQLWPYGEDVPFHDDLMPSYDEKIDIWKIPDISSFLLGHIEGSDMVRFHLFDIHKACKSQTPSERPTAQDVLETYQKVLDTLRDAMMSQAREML
UniProt P62937, whole entry, looked up: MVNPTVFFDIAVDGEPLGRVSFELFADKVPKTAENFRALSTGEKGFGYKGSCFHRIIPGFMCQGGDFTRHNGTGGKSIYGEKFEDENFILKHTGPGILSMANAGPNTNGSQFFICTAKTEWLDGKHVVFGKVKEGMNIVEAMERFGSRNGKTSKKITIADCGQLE
UniProt O15305: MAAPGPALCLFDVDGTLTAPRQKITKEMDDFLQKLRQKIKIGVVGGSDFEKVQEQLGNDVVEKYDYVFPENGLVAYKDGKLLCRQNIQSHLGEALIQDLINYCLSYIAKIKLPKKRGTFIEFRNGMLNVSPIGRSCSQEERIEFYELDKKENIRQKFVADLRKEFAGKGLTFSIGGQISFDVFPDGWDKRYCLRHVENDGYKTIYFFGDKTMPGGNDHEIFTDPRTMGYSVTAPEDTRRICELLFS
UniProt Q99575: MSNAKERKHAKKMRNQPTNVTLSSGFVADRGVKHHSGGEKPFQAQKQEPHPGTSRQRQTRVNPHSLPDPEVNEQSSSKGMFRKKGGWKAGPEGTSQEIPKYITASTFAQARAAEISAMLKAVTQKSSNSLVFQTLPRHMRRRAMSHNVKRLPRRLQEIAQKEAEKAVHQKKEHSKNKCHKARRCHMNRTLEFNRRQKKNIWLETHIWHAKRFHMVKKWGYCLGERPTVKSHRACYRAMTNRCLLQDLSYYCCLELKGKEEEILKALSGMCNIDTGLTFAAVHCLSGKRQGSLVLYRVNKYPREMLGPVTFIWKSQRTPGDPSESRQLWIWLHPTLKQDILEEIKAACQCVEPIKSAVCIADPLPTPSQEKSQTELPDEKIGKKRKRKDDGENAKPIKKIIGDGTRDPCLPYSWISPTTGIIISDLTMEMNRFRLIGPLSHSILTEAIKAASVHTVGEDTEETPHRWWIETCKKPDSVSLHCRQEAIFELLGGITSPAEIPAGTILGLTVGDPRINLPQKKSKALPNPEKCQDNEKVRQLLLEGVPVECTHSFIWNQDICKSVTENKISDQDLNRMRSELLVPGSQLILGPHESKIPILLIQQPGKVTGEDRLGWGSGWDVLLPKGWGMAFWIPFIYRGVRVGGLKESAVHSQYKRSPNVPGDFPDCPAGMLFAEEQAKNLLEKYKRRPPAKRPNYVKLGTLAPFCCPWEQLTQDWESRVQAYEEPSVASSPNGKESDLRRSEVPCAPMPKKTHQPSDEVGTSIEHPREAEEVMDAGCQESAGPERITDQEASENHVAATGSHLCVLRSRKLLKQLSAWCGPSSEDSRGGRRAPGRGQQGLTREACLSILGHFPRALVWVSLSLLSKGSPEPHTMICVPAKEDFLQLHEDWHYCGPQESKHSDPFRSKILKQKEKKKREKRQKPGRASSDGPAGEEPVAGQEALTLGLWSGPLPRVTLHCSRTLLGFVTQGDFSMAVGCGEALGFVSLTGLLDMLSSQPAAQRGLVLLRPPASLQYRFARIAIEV
UniProt Q96HA1, whole entry, looked up: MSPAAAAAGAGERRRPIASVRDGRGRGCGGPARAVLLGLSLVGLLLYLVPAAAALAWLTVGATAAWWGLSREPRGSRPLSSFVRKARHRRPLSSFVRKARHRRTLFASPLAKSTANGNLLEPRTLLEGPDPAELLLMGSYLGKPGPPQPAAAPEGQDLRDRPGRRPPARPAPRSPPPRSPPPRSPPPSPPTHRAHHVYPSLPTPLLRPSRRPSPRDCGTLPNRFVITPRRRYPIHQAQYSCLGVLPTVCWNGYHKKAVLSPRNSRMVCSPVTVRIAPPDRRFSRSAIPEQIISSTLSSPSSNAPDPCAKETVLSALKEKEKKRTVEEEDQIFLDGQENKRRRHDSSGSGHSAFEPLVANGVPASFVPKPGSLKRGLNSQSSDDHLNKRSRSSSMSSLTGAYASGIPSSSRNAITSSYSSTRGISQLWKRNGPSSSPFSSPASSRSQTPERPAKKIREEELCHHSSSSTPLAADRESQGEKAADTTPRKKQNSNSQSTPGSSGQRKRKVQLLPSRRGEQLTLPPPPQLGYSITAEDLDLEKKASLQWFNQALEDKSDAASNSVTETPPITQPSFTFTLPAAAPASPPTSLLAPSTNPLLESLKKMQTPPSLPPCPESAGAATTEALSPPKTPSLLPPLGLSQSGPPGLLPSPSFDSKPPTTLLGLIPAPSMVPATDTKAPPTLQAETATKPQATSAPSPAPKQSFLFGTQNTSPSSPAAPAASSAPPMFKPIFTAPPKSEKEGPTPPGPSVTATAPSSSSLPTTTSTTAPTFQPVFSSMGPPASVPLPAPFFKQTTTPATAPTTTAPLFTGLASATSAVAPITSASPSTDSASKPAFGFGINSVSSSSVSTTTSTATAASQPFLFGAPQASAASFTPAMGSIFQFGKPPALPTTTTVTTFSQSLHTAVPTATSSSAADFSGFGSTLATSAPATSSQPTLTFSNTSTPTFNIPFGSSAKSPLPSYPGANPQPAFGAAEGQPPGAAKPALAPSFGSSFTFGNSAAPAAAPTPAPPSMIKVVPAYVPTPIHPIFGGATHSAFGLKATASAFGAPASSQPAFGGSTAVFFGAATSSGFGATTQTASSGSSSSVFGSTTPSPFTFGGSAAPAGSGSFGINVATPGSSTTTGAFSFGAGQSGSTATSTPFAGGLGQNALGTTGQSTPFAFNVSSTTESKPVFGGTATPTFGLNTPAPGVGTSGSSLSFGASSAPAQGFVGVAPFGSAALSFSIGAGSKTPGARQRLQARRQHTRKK
UniProt Q15054: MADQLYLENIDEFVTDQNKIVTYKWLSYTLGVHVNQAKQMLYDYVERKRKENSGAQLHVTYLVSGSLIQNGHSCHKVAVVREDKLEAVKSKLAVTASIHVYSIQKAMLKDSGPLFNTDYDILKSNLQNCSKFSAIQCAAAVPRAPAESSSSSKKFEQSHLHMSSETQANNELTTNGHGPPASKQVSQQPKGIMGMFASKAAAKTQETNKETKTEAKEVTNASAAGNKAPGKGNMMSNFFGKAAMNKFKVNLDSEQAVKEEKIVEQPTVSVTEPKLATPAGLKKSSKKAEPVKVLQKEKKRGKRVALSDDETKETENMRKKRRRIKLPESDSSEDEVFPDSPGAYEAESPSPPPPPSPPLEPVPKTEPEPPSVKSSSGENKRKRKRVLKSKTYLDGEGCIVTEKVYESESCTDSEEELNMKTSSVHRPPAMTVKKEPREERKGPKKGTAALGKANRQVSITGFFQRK
UniProt Q8NBL1: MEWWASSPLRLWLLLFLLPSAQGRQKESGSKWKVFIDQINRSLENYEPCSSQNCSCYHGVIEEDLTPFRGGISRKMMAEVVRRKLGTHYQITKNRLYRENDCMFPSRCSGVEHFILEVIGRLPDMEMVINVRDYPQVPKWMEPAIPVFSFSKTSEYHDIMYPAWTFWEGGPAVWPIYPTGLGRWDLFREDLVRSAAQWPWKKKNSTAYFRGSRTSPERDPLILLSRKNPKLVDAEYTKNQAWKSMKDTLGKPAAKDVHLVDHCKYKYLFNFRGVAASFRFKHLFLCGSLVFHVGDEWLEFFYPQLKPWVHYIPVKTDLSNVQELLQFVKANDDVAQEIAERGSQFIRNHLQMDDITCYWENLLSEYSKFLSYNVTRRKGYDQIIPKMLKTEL
UniProt Q9NR33: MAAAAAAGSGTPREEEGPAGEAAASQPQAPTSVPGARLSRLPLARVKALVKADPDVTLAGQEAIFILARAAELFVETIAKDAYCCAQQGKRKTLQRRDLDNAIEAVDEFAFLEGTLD
UniProt Q99541: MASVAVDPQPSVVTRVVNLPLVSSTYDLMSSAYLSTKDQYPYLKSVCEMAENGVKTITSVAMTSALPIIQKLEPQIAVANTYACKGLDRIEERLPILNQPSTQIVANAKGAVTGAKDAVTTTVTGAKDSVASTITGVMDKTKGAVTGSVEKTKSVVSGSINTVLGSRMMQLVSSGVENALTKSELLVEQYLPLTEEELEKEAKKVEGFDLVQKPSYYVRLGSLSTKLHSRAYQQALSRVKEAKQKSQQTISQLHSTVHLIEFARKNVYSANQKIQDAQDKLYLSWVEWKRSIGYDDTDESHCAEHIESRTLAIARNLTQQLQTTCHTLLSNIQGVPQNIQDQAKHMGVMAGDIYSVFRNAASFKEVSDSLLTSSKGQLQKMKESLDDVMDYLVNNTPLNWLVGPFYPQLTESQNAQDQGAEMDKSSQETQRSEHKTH
UniProt P09884: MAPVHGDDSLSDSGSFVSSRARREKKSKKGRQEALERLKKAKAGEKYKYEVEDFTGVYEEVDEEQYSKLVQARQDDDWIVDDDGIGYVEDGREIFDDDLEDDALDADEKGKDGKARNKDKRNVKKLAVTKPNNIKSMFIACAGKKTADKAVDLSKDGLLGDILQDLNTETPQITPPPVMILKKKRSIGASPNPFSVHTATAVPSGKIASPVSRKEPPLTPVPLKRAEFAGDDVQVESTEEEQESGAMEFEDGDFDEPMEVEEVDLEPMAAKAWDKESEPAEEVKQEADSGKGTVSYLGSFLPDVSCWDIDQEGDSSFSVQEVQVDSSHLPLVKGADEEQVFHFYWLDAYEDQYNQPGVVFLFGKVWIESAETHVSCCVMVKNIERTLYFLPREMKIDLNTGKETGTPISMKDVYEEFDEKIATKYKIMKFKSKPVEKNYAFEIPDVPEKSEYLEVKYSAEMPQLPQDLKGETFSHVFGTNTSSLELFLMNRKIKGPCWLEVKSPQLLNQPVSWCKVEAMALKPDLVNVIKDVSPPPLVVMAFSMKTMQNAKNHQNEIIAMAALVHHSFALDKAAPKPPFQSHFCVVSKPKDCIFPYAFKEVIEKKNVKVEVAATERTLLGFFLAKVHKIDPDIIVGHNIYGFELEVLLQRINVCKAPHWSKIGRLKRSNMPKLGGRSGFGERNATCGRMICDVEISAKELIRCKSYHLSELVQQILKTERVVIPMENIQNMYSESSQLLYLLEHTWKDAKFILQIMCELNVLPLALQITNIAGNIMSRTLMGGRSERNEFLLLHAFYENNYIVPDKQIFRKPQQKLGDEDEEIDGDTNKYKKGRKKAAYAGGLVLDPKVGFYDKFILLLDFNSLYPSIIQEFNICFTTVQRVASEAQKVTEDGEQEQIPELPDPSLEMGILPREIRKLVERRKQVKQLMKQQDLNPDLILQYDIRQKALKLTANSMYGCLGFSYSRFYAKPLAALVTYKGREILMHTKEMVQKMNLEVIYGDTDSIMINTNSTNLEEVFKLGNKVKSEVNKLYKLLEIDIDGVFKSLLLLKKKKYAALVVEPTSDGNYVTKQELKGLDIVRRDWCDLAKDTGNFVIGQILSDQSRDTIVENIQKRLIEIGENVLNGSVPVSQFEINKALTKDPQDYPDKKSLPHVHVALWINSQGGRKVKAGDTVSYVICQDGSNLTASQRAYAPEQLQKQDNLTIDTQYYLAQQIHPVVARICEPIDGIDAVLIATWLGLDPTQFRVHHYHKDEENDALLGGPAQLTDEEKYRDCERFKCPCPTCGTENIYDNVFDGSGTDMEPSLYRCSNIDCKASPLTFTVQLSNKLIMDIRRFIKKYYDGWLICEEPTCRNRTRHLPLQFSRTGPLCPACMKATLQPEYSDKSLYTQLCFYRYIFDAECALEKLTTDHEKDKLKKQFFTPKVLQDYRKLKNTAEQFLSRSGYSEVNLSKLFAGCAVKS
UniProt P45877: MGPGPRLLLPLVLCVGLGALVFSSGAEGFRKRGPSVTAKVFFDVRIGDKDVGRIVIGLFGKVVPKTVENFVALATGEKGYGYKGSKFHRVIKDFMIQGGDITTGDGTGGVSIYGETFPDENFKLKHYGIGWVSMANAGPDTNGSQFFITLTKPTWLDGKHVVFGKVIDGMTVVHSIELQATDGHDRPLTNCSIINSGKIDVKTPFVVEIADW

volasertib = compound: CC[C@@H]1C(=O)N(C)c2cnc(Nc3ccc(C(=O)N[C@H]4CC[C@H](N5CCN(CC6CC6)CC5)CC4)cc3OC)nc2N1C(C)C [volasertib]
How it was run: as §1

[2] = compound: CC[C@H](C)N1C=C(C2=C(C=C(C=C21)C3=CN=C(C=C3)N4CCNCC4)C(=O)NCC5=C(C=C(NC5=O)C)C)C
How it was run: as §1

epoxomicin = compound: CC[C@H](C)[C@@H](C(=O)N[C@@H]([C@@H](C)O)C(=O)N[C@@H](CC(C)C)C(=O)[C@]1(CO1)C)NC(=O)[C@H]([C@@H](C)CC)N(C)C(=O)C [epoxomicin]
How it was run: as §1

[3] = compound: CCn1c(C(=O)N(C2CC2)C2CC2)cc2c3c(ncn3C)c(Nc3cc(C)n(C)n3)nc21
How it was run: as §1

[4] = compound: CCn1cc(-c2ccnc3[nH]c(-c4cccc(CN(C)C)c4)cc23)c(-c2ccc(NC(=O)N(C)C)cc2)n1
How it was run: as §1

[5] = compound: CN(C)CC(=O)Nc1ccc2[nH]c(=O)c3ccccc3c2c1
How it was run: as §1

rosiglitazone = compound: CN(CCOC1=CC=C(C=C1)C[C@H]2C(=O)NC(=O)S2)C3=CC=CC=N3 (racemic) [rosiglitazone]
How it was run: as §1

[6] = compound: CN1C2=C(C3=C1C(=O)N(N=C3)CC4=CC(=CC=C4)N)SC(=C2)S(=O)C
How it was run: as §1

[7] = compound: CN1CCC(CNc2ccc3ncc(-c4cccc(OC(F)(F)F)c4)n3n2)CC1
How it was run: as §1

saracatinib = compound: CN1CCN(CCOc2cc(OC3CCOCC3)c3c(Nc4c(Cl)ccc5c4OCO5)ncnc3c2)CC1 [saracatinib]
How it was run: as §1

sotrastaurin = compound: CN1CCN(c2nc(C3=C(c4c[nH]c5ccccc45)C(=O)NC3=O)c3ccccc3n2)CC1 [sotrastaurin]
How it was run: as §1

alvocidib = compound: CN1CC[C@H](c2c(O)cc(O)c3c(=O)cc(-c4ccccc4Cl)oc23)[C@H](O)C1 [alvocidib]
How it was run: as §1

Tubastatin A = compound: CN1CCc2c(c3ccccc3n2Cc2ccc(C(=O)NO)cc2)C1 [Tubastatin A]
How it was run: as §1

[8] = compound: CNC(=O)C1=CC=CC=C1NC2=NC(=NC=C2Cl)NC3=C(C=C(C=C3)N4CCOCC4)OC
How it was run: as §1

defactinib = compound: CNC(=O)c1ccc(Nc2ncc(C(F)(F)F)c(NCc3nccnc3N(C)S(C)(=O)=O)n2)cc1 [defactinib]
How it was run: as §1

rucaparib = compound: CNCc1ccc(-c2[nH]c3cc(F)cc4c3c2CCNC4=O)cc1 [rucaparib]
How it was run: as §1

[9] = compound: CNc1nc(-c2ccc3c(N)n[nH]c3c2)cc(N2C[C@@H](C(=O)NC3CCCCC3)CC[C@H]2C)n1
How it was run: as §1

encorafenib = compound: COC(=O)N[C@@H](C)CNc1nccc(-c2cn(C(C)C)nc2-c2cc(Cl)cc(NS(C)(=O)=O)c2F)n1 [encorafenib]
How it was run: as §1

[10] = compound: COC(=O)[C@H](CCSC)NC(=O)C1=C(C=C(C=C1)NC[C@H](CS)N)C2=CC=CC=C2
How it was run: as §1

Target | log2 fold change [1] | log2 fold change (volasertib) | log2 fold change [2] | log2 fold change (epoxomicin) | log2 fold change [3] | log2 fold change [4] | log2 fold change [5] | log2 fold change (rosiglitazone) | log2 fold change [6] | log2 fold change [7] | log2 fold change (saracatinib) | log2 fold change (sotrastaurin) | log2 fold change (alvocidib) | log2 fold change (Tubastatin A) | log2 fold change [8] | log2 fold change (defactinib) | log2 fold change (rucaparib) | log2 fold change [9] | log2 fold change (encorafenib) | log2 fold change [10]
POFUT2 (UniProt Q9Y2G5) | inactive: 0.064 | inactive: -0.022 | inactive: -0.018 | inactive: 0.021 | inactive: -0.013 | inactive: 0.047 | inactive: -0.021 | inactive: 0.038 | inactive: 0.127 | inactive: 0.071 | inactive: -0.083 | inactive: -0.04 | inactive: 0.021 | inactive: 0.057 | inactive: 0.019 | inactive: 0.034 | inactive: 0.072 | inactive: -0.003 | inactive: 0.08 | inactive: -0.016
PPID (UniProt Q08752) | inactive: -0.076 | active: -0.366 | inactive: 0.132 | inactive: 0.026 |  | inactive: -0.058 | inactive: 0.087 |  | inactive: -0.015 | inactive: -0.173 | inactive: -0.137 | inactive: -0.178 |  | inactive: 0.051 | inactive: 0.044 | inactive: -0.101 | inactive: 0.135 | inactive: 0.042 | inactive: 0.142 | inactive: -0.052
POMK (UniProt Q9H5K3) | inactive: -0.079 | inactive: -0.093 | inactive: 0.014 | inactive: -0.05 |  | inactive: 0.054 | inactive: -0.007 |  | inactive: 0.023 | inactive: -0.082 | inactive: -0.047 | inactive: 0.007 |  | inactive: 0.021 | inactive: 0.022 | inactive: 0.024 | inactive: 0.168 | inactive: -0.052 | inactive: 0.089 | inactive: -0.056
PPIA isoform 2 (UniProt P62937) | inactive: 0.082 | inactive: -0.02 | inactive: -0.119 | inactive: -0.069 |  | inactive: 0.123 | inactive: -0.029 | inactive: 0.152 | inactive: -0.128 | inactive: 0.094 | inactive: -0.008 |  | inactive: 0.082 | inactive: -0.082 |  | inactive: -0.056 | inactive: -0.42 | inactive: -0.08 | inactive: 0 | inactive: 0.074
POLR2A (UniProt P24928) | inactive: 0.093 | inactive: -0.034 | inactive: 0.006 | inactive: 0.004 |  | inactive: 0.022 | inactive: 0.041 |  | inactive: -0.052 | inactive: 0.156 | inactive: -0.012 | inactive: 0.034 | active: 0.329 | inactive: -0.012 | inactive: -0.035 | inactive: 0.241 | inactive: 0.126 | inactive: 0.025 | inactive: 0.027 | inactive: -0.07
PMM1 (UniProt Q92871) | inactive: -0.029 | inactive: -0.239 | inactive: -0.024 | inactive: -0.002 |  | inactive: 0.08 | inactive: 0.009 |  | inactive: -0.061 | inactive: -0.018 | inactive: 0.006 | inactive: 0.094 |  | inactive: -0.018 | active: -0.315 | inactive: -0.007 | inactive: 0.095 | inactive: 0.028 | inactive: -0.017 | inactive: -0.023
PLTP (UniProt P55058) | inactive: 0.254 | inactive: 0.097 | inactive: -0.108 | inactive: -0.05 | inactive: 0.008 | inactive: -0.268 | inactive: -0.093 |  | inactive: -0.088 | inactive: 0.155 | inactive: 0.046 | inactive: 0.05 | inactive: 0.038 |  | inactive: 0.055 | inactive: -0.002 | inactive: -0.117 | inactive: -0.035 | inactive: 0.053 | inactive: 0.042
PMM2 (UniProt O15305) | inactive: -0.03 | inactive: -0.021 | inactive: 0.026 | inactive: -0.021 |  | inactive: -0.002 | inactive: -0.049 |  | inactive: -0.076 | inactive: -0.049 | inactive: -0.025 | inactive: 0.062 |  | inactive: -0.031 | inactive: -0.183 | inactive: 0.022 | inactive: 0.018 | inactive: -0.02 | inactive: -0.006 | inactive: 0.058
POP1 (UniProt Q99575) | inactive: 0.069 | inactive: 0.092 | inactive: 0.02 | inactive: -0.001 |  | inactive: 0.028 | inactive: -0.019 |  | inactive: -0.009 | inactive: 0.075 | inactive: 0.077 | inactive: -0.01 |  | inactive: 0.026 | inactive: -0.002 | inactive: -0.055 | inactive: 0.014 | inactive: 0.014 | inactive: 0.006 | inactive: 0.016
PLSCR1 (UniProt O15162) | inactive: 0.025 | inactive: -0.1 | inactive: -0.069 | inactive: -0.022 |  | inactive: 0.053 | inactive: 0.037 |  | inactive: -0.02 | inactive: 0.044 | inactive: 0.052 | inactive: 0.024 |  | inactive: 0.025 | inactive: -0.058 | inactive: 0.006 | inactive: -0.015 | inactive: 0.082 | inactive: -0.006 | inactive: 0.006
POM121 (UniProt Q96HA1) | inactive: -0.017 | inactive: -0.027 | inactive: 0.056 | inactive: -0.062 |  | inactive: 0.03 | inactive: -0.071 |  | inactive: 0.137 | inactive: -0.149 | inactive: -0.043 | inactive: -0.024 |  | inactive: 0.083 | inactive: 0.126 | inactive: 0.045 | inactive: 0.069 | inactive: 0 | inactive: 0.075 | inactive: -0.002
POLR2B (UniProt P30876) | inactive: 0.064 | inactive: -0.128 | inactive: -0.018 | inactive: -0.008 |  | inactive: 0.023 | inactive: -0.015 |  | inactive: 0.03 | inactive: 0.031 | inactive: -0.071 | inactive: -0.032 | active: 0.254 | inactive: -0.01 | inactive: -0.016 | inactive: 0.173 | inactive: 0.174 | inactive: -0.012 | inactive: 0.056 | inactive: -0.044
POLD3 (UniProt Q15054) | inactive: -0.147 | inactive: -0.101 | inactive: 0.008 | inactive: 0.126 |  | inactive: -0.037 | inactive: 0.067 |  | inactive: 0.051 | inactive: -0.118 | inactive: -0.035 | inactive: -0.131 |  | inactive: 0.137 | inactive: 0.01 | inactive: -0.225 | inactive: 0.018 | inactive: 0.042 | inactive: 0.082 | inactive: -0.047
POGLUT1 (UniProt Q8NBL1) | inactive: 0.007 | inactive: -0.054 | inactive: 0.013 | inactive: 0.012 |  | inactive: 0.089 | inactive: -0.083 |  | inactive: 0.039 | active: 0.26 | inactive: -0.124 | inactive: 0 |  | inactive: 0.009 | inactive: -0.004 | inactive: 0.039 | inactive: 0.069 | inactive: -0.063 | inactive: 0.015 | inactive: 0.042
POLE4 (UniProt Q9NR33) | inactive: 0.032 | inactive: -0.147 | inactive: -0.017 | inactive: 0.088 | inactive: -0.052 | inactive: -0.006 | inactive: 0.065 | inactive: 0.006 |  | inactive: -0.007 |  | inactive: 0.057 | inactive: -0.145 | inactive: -0.068 | inactive: 0.023 | inactive: -0.045 | inactive: 0 |  | inactive: -0.007 | inactive: -0.043
PLIN2 (UniProt Q99541) | inactive: -0.173 | inactive: -0.259 | inactive: -0.102 | inactive: 0.153 |  | inactive: -0.01 | inactive: 0.013 |  | inactive: 0 | active: -0.699 | inactive: -0.033 | inactive: -0.243 |  | inactive: 0.015 | inactive: 0.026 | inactive: -0.006 | inactive: -0.012 | inactive: -0.001 | inactive: 0.002 | inactive: 0.047
POLA1 (UniProt P09884) | inactive: -0.048 | active: -0.466 | inactive: 0.059 | inactive: 0.045 |  | inactive: -0.089 | inactive: 0.032 |  | inactive: -0.012 | inactive: -0.163 | inactive: 0.006 | inactive: -0.096 |  | inactive: 0.025 | inactive: 0.079 | inactive: -0.156 | inactive: -0.126 | inactive: -0.016 | inactive: -0.005 | inactive: -0.035
PPIC (UniProt P45877) | inactive: 0.038 | inactive: -0.461 | inactive: 0.061 | inactive: 0.076 | inactive: 0.013 | inactive: 0.002 |  | inactive: -0.115 | inactive: 0.176 | inactive: -0.047 | inactive: -0.145 | inactive: -0.072 | inactive: -0.028 |  | inactive: 0.022 |  | inactive: -0.069 | inactive: -0.05 | inactive: -0.251 | 

Two records drawn at random from those above:
Target | log2 fold change [1] | log2 fold change (volasertib) | log2 fold change [2] | log2 fold change (epoxomicin) | log2 fold change [3] | log2 fold change [4] | log2 fold change [5] | log2 fold change (rosiglitazone) | log2 fold change [6] | log2 fold change [7] | log2 fold change (saracatinib) | log2 fold change (sotrastaurin) | log2 fold change (alvocidib) | log2 fold change (Tubastatin A) | log2 fold change [8] | log2 fold change (defactinib) | log2 fold change (rucaparib) | log2 fold change [9] | log2 fold change (encorafenib) | log2 fold change [10]
POP1 (UniProt Q99575) | inactive: 0.069 | inactive: 0.092 | inactive: 0.02 | inactive: -0.001 |  | inactive: 0.028 | inactive: -0.019 |  | inactive: -0.009 | inactive: 0.075 | inactive: 0.077 | inactive: -0.01 |  | inactive: 0.026 | inactive: -0.002 | inactive: -0.055 | inactive: 0.014 | inactive: 0.014 | inactive: 0.006 | inactive: 0.016
POLR2A (UniProt P24928) | inactive: 0.093 | inactive: -0.034 | inactive: 0.006 | inactive: 0.004 |  | inactive: 0.022 | inactive: 0.041 |  | inactive: -0.052 | inactive: 0.156 | inactive: -0.012 | inactive: 0.034 | active: 0.329 | inactive: -0.012 | inactive: -0.035 | inactive: 0.241 | inactive: 0.126 | inactive: 0.025 | inactive: 0.027 | inactive: -0.07

— the supplement of paper PMC10849652
